Experimental data from publication PMC6345439, “INDETERMINATE-DOMAIN 4 (IDD4) coordinates immune responses with plant-growth in Arabidopsis thaliana”.

Experiments:
[1] = molecular target: T1, MBP-IDD4 (WT, truncated) (Arabidopsis thaliana) (UniProt Q8GYC1); assay: EMSA; settings: LightShift Chemiluminescent EMSA kit instructions; 20 fmol biotinylated DNA, 1 ug protein; pH and temperature not stated; recombinant protein; residues 20-219; protein details: MBP; label: 3' biotin
T1 sequence (looked up): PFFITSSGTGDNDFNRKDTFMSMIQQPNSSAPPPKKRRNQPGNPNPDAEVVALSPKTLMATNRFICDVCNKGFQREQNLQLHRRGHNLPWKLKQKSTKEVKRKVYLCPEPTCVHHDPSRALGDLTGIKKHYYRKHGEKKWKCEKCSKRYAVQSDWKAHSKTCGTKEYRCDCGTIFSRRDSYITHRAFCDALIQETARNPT

[2] = molecular target: MBP-IDD4-AA (phospho-dead, truncated) S73A,T130A (Arabidopsis thaliana) (UniProt Q8GYC1); assay: EMSA; settings: LightShift Chemiluminescent EMSA kit instructions; 20 fmol biotinylated DNA, 1 ug protein; pH and temperature not stated; recombinant protein; residues 20-219; protein details: MBP; label: 3' biotin
[3] = molecular target: T2, MBP-IDD4-DD (phospho-mimic, truncated) S73D,T130D (Arabidopsis thaliana) (UniProt Q8GYC1); assay: competition with a labelled probe; settings: unlabeled competitor up to 0.5 uM (100x excess) against N1, minor competition; LightShift Chemiluminescent EMSA kit instructions; 20 fmol biotinylated DNA, 1 ug protein; pH and temperature not stated; recombinant protein; residues 20-219; protein details: MBP
T2 sequence (looked up): T1 sequence (looked up) with S54D, T111D

Sequence: ACATGGTAGACAAAATAATGAAGCCAAAATTAATA (double strand) [SAGT1 promoter ID1 probe (395s/395as)]
- binding result [1]: binds more weakly
- binding result [2]: binds more weakly

Sequence: ACATGGTCTCAGGAATAATGACTCAGGAATTAATA (double strand) [SAGT1 mutated ID1 competitor, unlabeled (mut; 396s/396as)]
- binding result [3]: binds more weakly

Residue numbers refer to the chain shown, from its start. The comparison behind a weaker result is the experiment's own reference, which may not be listed here. For part of these data: Tags and fusion partners may be left off the protein sequences shown. For part of these data: Construct, isoform or probe ends are uncertain for at least one entry.
